This assay has as its system M. mycetomatis strain mm55. The note with it: primary screen, metabolic activity vs growth control, 96 h, 2 µM, inhibitor.

Counter-ions that a name gives are not always drawn. Like-named read-outs stand apart in the source and are kept apart here. The campaign covered roughly 5,300 compounds. About 130 (2.5%) showed an effect of 50% or more. Some of the results follow. Numbered stars: 1 amine (or outer) side, 2 acyl side, 3 side chain; on linkers, the order of the positions; unused ones are H or OH. Bridge positions count the residues as written; N and C are the ends. Square brackets hold non-standard residues; d marks the D form. Peptide text beside a SMILES is read from it. I, II: the chains in the order shown. Actinocin(9to1) = Cc1c2oc3c(C)ccc(C(=O)[*:1])c3nc-2c(C(=O)[*:2])c(N)c1=O; NMeV = CN[C@H](C(=O)O)C(C)C; Sar = CNCC(=O)O

Consider `O=C(c1cncc(Br)c1)N1CCC(N2CCCC2)CC1` [ONC0005156, unc669], for which the “% viability” value was found to be 69.77%.
The same measure, in the same setting: to `O=C(Nc1ccc([N+](=O)[O-])cc1O)Nc1ccccc1Br` [ONC0001308, sb225002] belongs 58.94%; to `Cc1cnc(C(=O)O)c[n+]1[O-]` [ONC0004232, acipimox], 58.97%.
Take `CC(=O)Nc1cccc(O)c1` [ONC0003258, metacetamol]: the “% viability” value was determined as 53.98%.
The same measure, in the same setting: to `O=c1c(O)c(-c2ccc(O)c(O)c2)oc2cc(O)cc(O)c12` [ONC0001264, quercetin] belongs 90.95%; to `Cc1cc(S(=O)(=O)O)c2c(C)ccc(C(C)C)cc1-2` [ONC0003383, sodium gualenate], 92.53%; to `C[N+](C)(C)CCOP(=O)([O-])OC[C@H](O)CO` [ONC0001883, snglycero3phosphocholine], 65.85%.
The same measure, in the same setting: the value for `O=[N+]([O-])c1ccc2nc(COCc3nc4ccc([N+](=O)[O-])cc4[nH]3)[nH]c2c1` [ONC0002515, vu591] was 61.47%; that for `CN=C(N)NC(=O)Nc1c(C)cccc1C` [ONC0003862] was 68.76%; that for `CC/C(=C(\c1ccccc1)c1ccc(OCCN(C)C)cc1)c1ccccc1` [ONC0000595, tamoxifen citrate] was 106.5%.
In the case of `CCc1oc2ccccc2c1C(=O)c1cc(Br)c(O)c(Br)c1` [ONC0004022, benzbromarone], the “% viability” value came out at 98.48%.
On the same count and under the same terms, to `Cn1cc(-c2ccc(S(=O)(=O)n3ccc(/C=C/C(=O)Nc4ccccc4N)c3)cc2)cn1` [ONC0005104, 4sc202] belongs 74.64%.
On to `c1ccc(-c2n[nH]c3c2oc2ccccc23)cc1` [ONC0001593, gtp14564], for which the “% viability” value came to 74.59%.
With `NC(=O)C1=CN([C@@H]2O[C@H](COP(=O)(O)OP(=O)(O)OC[C@H]3O[C@@H](n4cnc5c(N)ncnc54)[C@H](O)[C@@H]3O)[C@@H](O)[C@H]2O)C=CC1` [ONC0002947, coenzymei], the “% viability” value was determined as 72.84%.
`Cc1c2oc3c(C)ccc(C(=O)N[C@@H]4C(=O)N[C@H](C(C)C)C(=O)N5CCC[C@H]5C(=O)N(C)CC(=O)N(C)[C@@H](C(C)C)C(=O)O[C@@H]4C)c3nc-2c(C(=O)N[C@@H]2C(=O)N[C@H](C(C)C)C(=O)N3CCC[C@H]3C(=O)N(C)CC(=O)N(C)[C@@H](C(C)C)C(=O)O[C@@H]2C)c(N)c1=O` [ONC0002258, actinomycin d] (I: T[dV]P[Sar][NMeV] / II: T[dV]P[Sar][NMeV]; ester I:1-I:C, II:1-II:C; linker I:N-II:N via Actinocin(9to1)): the “% viability” value (Madurella mycetomatis metabolic activity at 2µM (%)) was 100.3%.
Turning to `CC(C)[C@@H](CS(=O)(=O)C(C)C)N1C(=O)[C@@](C)(CC(=O)O)C[C@H](c2cccc(Cl)c2)[C@H]1c1ccc(Cl)cc1` [ONC0000969, amg 232], the “% viability” value stood at 85.4%.
As for `NCc1ccc(S(N)(=O)=O)cc1` [ONC0000477, mafenide hydrochloride], the “% viability” value was 60.8%.
Regarding `CC[N+](CC)(CC)CCOc1cccc(OCC[N+](CC)(CC)CC)c1OCC[N+](CC)(CC)CC` [ONC0000433, gallamine triethiodide], the “% viability” value is recorded as 90.82%.
Turning to `CC(C)(C)NCC(O)c1cc(O)cc(O)c1` (stereo not shown) [ONC0000606, terbutaline hemisulfate], the “% viability” value worked out at 93.54%.
For the compound `NS(=O)(=O)c1cc2c(cc1Cl)NC(CC1CCCC1)NS2(=O)=O` (stereo not shown) [ONC0002932, cyclopenthiazide], the “% viability” value is on record as 58.19%.
As for `CN(C)CCCCC(=O)Nc1ccc(NC(=S)NC(=O)c2ccc(C(C)(C)C)cc2)cc1` [ONC0004562, tenovin6], the “% viability” value amounted to 74.44%.
Take `C=C(c1ccc(C(=O)O)cc1)c1cc2c(cc1C)C(C)(C)CCC2(C)C` [ONC0004806, bexarotene]: the “% viability” value is given as 105.3%.
Same read-out and setting: the value for `COc1cc2ncnc(Nc3ccc(F)c(Cl)c3)c2cc1OCCCN1CCOCC1` [ONC0001398, gefitinib] was 84.81%.
Turning to `CCOc1ccc(-c2ccc(Cn3c(CC(C)(C)C(=O)O)c(SC(C)(C)C)c4cc(OCc5ccc(C)cn5)ccc43)cc2)cn1` [ONC0002064, fiboflapon sodium], the “% viability” value was 68.44%.
Still for that read-out and setting: to `CN1CCN(c2nc(C3=C(c4c[nH]c5ccccc45)C(=O)NC3=O)c3ccccc3n2)CC1` [ONC0005088, sotrastaurin aeb071] belongs 54.81%; to `c1ccc(C2CC2)c(OCC2=NCCN2)c1` [ONC0000039, cirazoline], 90.34%; to `CC(C(=O)O)c1ccc(C(=O)c2cccs2)cc1` (stereo not shown) [ONC0005011, suprofen profenal], 82.43%.
For `CCOC(=O)CN1CCN(C(=O)/C=C/c2cc(OC)c(OC)c(OC)c2)CC1` [ONC0005388, cinepazet], the “% viability” value came to 102.3%.
The same measure, in the same setting: to `[O-][S+](c1ccccc1)c1ccc2nnnn2n1` (stereo not shown) [ONC0001706, ro1069920] belongs 85.95%.
The same measure, in the same setting: the value for `CCOc1ccc(NC(C)=O)cc1` [ONC0003348, phenacetin] was 70.12%; that for `CN1CCC[C@@H]1CCO[C@](C)(c1ccccc1)c1ccc(Cl)cc1` [ONC0000347, clemastine fumarate] was 104.8%.
The same measure, in the same setting: the value for `CC[C@@H]([C@H](C)O)n1ncn(-c2ccc(N3CCN(c4ccc(OC[C@@H]5CO[C@@](Cn6cncn6)(c6ccc(F)cc6F)C5)cc4)CC3)cc2)c1=O` [Posaconazole] was 0.7626%; that for `C(#Cc1nc2ncccc2nc1OCCN1CCCC1)c1ccccc1` [ONC0002542, gk921] was 70.43%.
In the case of `NC(=O)[C@H]1CCS[C@@H]2C[C@]3(CCCN3C(=O)Cc3ccc(NC(=O)COc4ccc(Cl)cc4Cl)cc3)C(=O)N12` [ONC0001082, st 2825], the “% viability” value is 47.43%.
The same measure, in the same setting: to `CN[C@@H](C)C(=O)N[C@H](C(=O)N1CCC[C@H]1C(=O)Nc1sc(-c2ncco2)nc1-c1ccccc1)C1CCCCC1` [ONC0002073, cudc427] belongs 73.98%; to `O=C(O)c1ccccc1` [ONC0003100, benzoic acid], 90.48%.
For `CCN1CCC[C@H]1CNC(=O)c1c(O)c(Cl)cc(Cl)c1OC` [ONC0001688, raclopride], the “% viability” value worked out at 65.21%.

The values above are taken from article PMC12670160, “A drug-repurposing screen of FDA- and EMA-approved drugs identifies two NF-κB inhibitors active against eumycetoma” (Journal of Antimicrobial Chemotherapy, 2025).
